Experimental findings from publication PMC314469, “Protein Interaction Networks by Proteome Peptide Scanning” (PLoS Biology, 2004) are described below.

These are yes or no findings as the source states them, for the method shown. Tags and fused reporters may be left off the sequences shown.

The target in this assay is T1, GST-Abp1 SH3 domain (S. cerevisiae) (UniProt P15891).
T1 sequence: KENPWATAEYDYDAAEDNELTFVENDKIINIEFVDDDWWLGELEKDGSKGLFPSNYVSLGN
Nature of the assay: SPR; BIAcoreX; GST-fused SH3 domains (and GST as control) amine-coupled to CM5 chips; peptides flowed at 25°C in 10 mM HEPES, 150 mM NaCl, 3.4 mM EDTA, 0.005% P20, pH 7.4, 15 μl/min, 500 μM to 65 nM; steady-state model; both purified. (In general: Surface plasmon resonance follows binding to a sensor surface in real time, without labels.)

As for RRPPPPPIPSTQKP [Ynl094w peptide …], the binding result is listed as “no binding (tested: 100 μM)”.
